From paper PMC6684615
No constants are given. Whether binding was seen depends on the method and setting. Binding seen in cells or lysates may run through a third protein. Some entries that bind do so weakly or less than the wild type.

The chains behind the UniProt entries cited, without tags or fusion partners.
UniProt P29351: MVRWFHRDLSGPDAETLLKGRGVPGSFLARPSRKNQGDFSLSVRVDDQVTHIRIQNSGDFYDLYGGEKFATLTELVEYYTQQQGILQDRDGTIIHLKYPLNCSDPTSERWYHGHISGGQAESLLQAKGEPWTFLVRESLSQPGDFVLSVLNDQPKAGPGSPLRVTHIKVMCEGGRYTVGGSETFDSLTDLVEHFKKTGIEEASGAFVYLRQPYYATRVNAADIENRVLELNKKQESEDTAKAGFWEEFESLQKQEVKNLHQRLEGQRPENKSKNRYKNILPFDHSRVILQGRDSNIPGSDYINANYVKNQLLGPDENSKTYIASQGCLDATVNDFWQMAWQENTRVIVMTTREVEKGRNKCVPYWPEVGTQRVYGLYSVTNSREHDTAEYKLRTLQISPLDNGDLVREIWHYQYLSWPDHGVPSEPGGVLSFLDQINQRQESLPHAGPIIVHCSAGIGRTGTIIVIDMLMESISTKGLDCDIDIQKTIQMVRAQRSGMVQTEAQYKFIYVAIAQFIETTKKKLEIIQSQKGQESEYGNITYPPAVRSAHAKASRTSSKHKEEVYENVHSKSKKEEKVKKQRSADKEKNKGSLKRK

Columns and labels:
[1] = molecular target: T1, PirB, endogenous in Hepa1c1c-7 cells (mouse (endogenous in Hepa1c1c-7)) (UniProt P97484); experiment: co-IP; Hepa1c1c-7 cells stimulated with 40 nM Angptl8 for 0, 5 and 10 min; precipitated with anti-PirB antibody; blots for SHP-1, SHP-2 and phospho-tyrosine
T1 sequence (chain, tyrosine phosphorylation (sites not stated), reduced after Angptl8 treatment): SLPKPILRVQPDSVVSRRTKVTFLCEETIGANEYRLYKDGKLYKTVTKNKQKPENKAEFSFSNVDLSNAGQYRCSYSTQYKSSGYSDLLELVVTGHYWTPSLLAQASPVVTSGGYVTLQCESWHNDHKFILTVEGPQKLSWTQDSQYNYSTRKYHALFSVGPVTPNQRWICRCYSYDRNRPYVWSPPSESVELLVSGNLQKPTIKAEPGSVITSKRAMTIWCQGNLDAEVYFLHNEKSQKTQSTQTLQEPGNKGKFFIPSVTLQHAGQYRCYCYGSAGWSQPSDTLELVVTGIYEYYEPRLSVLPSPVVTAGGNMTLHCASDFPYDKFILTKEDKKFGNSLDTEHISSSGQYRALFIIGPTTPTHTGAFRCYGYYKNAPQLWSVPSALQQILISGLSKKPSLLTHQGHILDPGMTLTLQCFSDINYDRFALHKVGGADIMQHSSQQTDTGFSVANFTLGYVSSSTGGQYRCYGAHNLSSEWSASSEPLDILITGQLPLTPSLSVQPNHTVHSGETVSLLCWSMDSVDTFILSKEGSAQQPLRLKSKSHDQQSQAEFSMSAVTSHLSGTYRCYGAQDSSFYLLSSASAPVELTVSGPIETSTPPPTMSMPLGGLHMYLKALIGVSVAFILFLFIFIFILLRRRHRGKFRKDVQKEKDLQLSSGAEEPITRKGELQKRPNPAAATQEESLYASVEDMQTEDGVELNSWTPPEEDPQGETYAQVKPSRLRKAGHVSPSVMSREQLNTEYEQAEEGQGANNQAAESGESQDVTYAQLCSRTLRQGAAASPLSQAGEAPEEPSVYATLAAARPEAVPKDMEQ

[2] = molecular target: T2, PirB (paired immunoglobulin-like receptor B), endogenous in mouse liver (mouse (endogenous in mouse liver)) (UniProt P97484); experiment: co-IP; mouse liver lysates in RIPA buffer; 50 ug protein lysate with Protein-A/G agarose beads and 2 ug anti-Angptl8 or anti-PirB antibody overnight; Western blot
T2 sequence: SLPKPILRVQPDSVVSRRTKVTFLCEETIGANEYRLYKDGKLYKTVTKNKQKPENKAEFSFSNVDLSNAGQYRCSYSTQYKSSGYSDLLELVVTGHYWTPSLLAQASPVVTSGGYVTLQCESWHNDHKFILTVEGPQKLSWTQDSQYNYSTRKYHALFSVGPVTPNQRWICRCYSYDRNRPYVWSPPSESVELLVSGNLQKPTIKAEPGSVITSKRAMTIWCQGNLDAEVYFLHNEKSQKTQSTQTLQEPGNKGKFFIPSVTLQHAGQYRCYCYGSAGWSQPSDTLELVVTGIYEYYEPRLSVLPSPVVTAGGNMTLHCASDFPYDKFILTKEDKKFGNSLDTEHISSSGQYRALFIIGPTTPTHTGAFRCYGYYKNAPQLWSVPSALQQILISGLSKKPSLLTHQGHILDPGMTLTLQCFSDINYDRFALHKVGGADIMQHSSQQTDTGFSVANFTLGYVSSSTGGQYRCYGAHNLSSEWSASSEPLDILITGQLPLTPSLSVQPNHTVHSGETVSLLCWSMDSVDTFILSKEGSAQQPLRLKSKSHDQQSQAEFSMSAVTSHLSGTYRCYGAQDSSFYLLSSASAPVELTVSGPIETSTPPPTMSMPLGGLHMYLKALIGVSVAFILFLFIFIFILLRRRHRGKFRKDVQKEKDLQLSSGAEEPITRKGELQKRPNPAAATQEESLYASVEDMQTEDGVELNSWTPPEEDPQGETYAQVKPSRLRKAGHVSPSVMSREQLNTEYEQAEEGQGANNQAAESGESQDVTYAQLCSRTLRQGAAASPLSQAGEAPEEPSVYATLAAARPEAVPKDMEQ

[3] = molecular target: T3, mouse PirB, from a transfected plasmid (PirB CDS domain) (mouse) (UniProt P97484); experiment: co-IP; Hepa1c1c-7 cells cotransfected with plasmids encoding mouse Angptl8 and PirB; lysed in RIPA buffer; Protein-A/G agarose beads with anti-Angptl8 or anti-PirB antibody; Western blot
T3 sequence: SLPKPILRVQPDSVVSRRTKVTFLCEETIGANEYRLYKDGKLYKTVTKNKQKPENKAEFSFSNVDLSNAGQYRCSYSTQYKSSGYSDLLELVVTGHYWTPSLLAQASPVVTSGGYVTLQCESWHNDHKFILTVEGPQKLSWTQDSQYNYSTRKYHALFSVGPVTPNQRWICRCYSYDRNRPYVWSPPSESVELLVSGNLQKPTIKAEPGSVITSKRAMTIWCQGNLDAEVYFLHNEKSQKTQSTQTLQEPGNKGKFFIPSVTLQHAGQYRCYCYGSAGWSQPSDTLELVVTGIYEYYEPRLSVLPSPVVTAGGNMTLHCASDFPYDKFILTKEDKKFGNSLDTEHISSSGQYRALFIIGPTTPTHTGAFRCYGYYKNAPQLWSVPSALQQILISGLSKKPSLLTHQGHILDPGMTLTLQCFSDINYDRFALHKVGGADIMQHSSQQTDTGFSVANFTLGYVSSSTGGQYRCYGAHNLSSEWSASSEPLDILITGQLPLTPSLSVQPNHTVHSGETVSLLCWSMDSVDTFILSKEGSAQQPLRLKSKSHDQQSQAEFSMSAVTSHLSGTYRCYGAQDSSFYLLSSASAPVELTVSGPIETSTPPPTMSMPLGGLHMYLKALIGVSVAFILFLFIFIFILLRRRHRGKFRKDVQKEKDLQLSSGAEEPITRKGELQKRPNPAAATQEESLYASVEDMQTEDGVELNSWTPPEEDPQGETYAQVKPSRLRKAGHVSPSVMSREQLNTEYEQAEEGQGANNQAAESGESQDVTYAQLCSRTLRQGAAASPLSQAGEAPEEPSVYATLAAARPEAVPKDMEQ

With “SHP-1, endogenous in Hepa1c1c-7 cells (from UniProt P29351 1-595) (enzyme)” the binding [1] was “binds”.

B1: Angptl8 (angiopoietin-like protein 8), endogenous in mouse liver (ligand, UniProt Q8R1L8 16-198)
chain: VRPAPVAPLGGPEPAQYEELTLLFHGALQLGQALNGVYRATEARLTEAGHSLGLYDRALEFLGTEVRQGQDATQELRTSLSEIQVEEDALHLRAEATARSLGEVARAQQALRDTVRRLQVQLRGAWLGQAHQEFETLKARADKQSHLLWALTGHVQRQQREMAEQQQWLRQIQQRLHTAALPA
In the case of B1, the binding [2] is reported as “binds”.

B2: mouse full-length Angptl8, from a transfected plasmid (ligand, UniProt Q8R1L8 16-198)
chain: VRPAPVAPLGGPEPAQYEELTLLFHGALQLGQALNGVYRATEARLTEAGHSLGLYDRALEFLGTEVRQGQDATQELRTSLSEIQVEEDALHLRAEATARSLGEVARAQQALRDTVRRLQVQLRGAWLGQAHQEFETLKARADKQSHLLWALTGHVQRQQREMAEQQQWLRQIQQRLHTAALPA
For B2, the binding [3] was “binds”.
